PubChem BioAssay AID1259405, NCATS, 2018

Aim: 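Silenced genes that increase secreted GFP made by CHO cells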 (primary screen)
Cells: Chinese hamster CHO-K1 ovary cells with stable secreted eGFP expression
Reagents: single siRNA against mouse genes, 0.8 pmol siRNA per well (2 µl of 400 nM stock)
Time to read-out: 3 days
Measurement: 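Per-well intracellular GFP measured by laser scanning cytometry, plus viability from ATP luminescence, each relative to plate median of non-targeting control wells, in %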
Scale: GFP, % of control: higher = more GFP per well, higher productivity; viability (ATP), % of control: higher = more viable cells (more ATP)
Active means: 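Called active when intracellular GFP, relative to negative control, is at or above 120%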
The whole screen tested about 50,000 reagents; shown is a random part of them. About 4,000 of them (8%) count as active. 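Mouse siRNA library applied to hamster cells; one well for each siRNA.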 Entries without a mark were called inactive. The numbers tell different reagents against one gene apart.

{"Target gene": "Pbp2", "reagent": 1, "GFP, % of control": 14.5, "viability (ATP), % of control": 13.2}
{"Target gene": "Pbp2", "reagent": 2, "GFP, % of control": 75.9, "viability (ATP), % of control": 81.2}
{"Target gene": "Pbp2", "reagent": 3, "GFP, % of control": 79.6, "viability (ATP), % of control": 77.2}
{"Target gene": "Vwa2", "reagent": 1, "GFP, % of control": 64.2, "viability (ATP), % of control": 75.6}
{"Target gene": "Vwa2", "reagent": 2, "GFP, % of control": 50.2, "viability (ATP), % of control": 36.9}
{"Target gene": "Vwa2", "reagent": 3, "GFP, % of control": 65.4, "viability (ATP), % of control": 53.3}
{"Target gene": "Golph3l", "reagent": 1, "GFP, % of control": 83.2, "viability (ATP), % of control": 83.3}
{"Target gene": "Golph3l", "reagent": 2, "GFP, % of control": 78, "viability (ATP), % of control": 45.8}
{"Target gene": "Golph3l", "reagent": 3, "GFP, % of control": 47.5, "viability (ATP), % of control": 39.8}
{"Target gene": "Rsph1", "reagent": 1, "GFP, % of control": 54.2, "viability (ATP), % of control": 84.3}
{"Target gene": "Rsph1", "reagent": 2, "GFP, % of control": 60.1, "viability (ATP), % of control": 84.9}
{"Target gene": "Rsph1", "reagent": 3, "GFP, % of control": 104, "viability (ATP), % of control": 93.3}
{"Target gene": "Ndn", "reagent": 1, "GFP, % of control": 92.8, "viability (ATP), % of control": 98.3}
{"Target gene": "Ndn", "reagent": 2, "GFP, % of control": 75.5, "viability (ATP), % of control": 56.8}
{"Target gene": "Ndn", "reagent": 3, "GFP, % of control": 72.3, "viability (ATP), % of control": 59.1}

Looked up above.
Vwa2 #3, GFP, % of control → 65.4
Entry for Golph3l #3 in “viability (ATP), % of control”: 39.8
Pbp2 #3, viability (ATP), % of control → 77.2

The results go on:
{"Target gene": "Vmn1r72", "reagent": 1, "GFP, % of control": "133 (active)", "viability (ATP), % of control": 52.7}
{"Target gene": "Vmn1r72", "reagent": 2, "GFP, % of control": 49.6, "viability (ATP), % of control": 56.9}
{"Target gene": "Vmn1r72", "reagent": 3, "GFP, % of control": 53.6, "viability (ATP), % of control": 68.1}
{"Target gene": "Ypel3", "reagent": 1, "GFP, % of control": 93.8, "viability (ATP), % of control": 87.5}
{"Target gene": "Ypel3", "reagent": 2, "GFP, % of control": 90.6, "viability (ATP), % of control": 86.4}
{"Target gene": "Ypel3", "reagent": 3, "GFP, % of control": 92.9, "viability (ATP), % of control": 98.2}
{"Target gene": "Rad51", "reagent": 1, "GFP, % of control": 60.1, "viability (ATP), % of control": 74.7}
{"Target gene": "Rad51", "reagent": 2, "GFP, % of control": 84.4, "viability (ATP), % of control": 77.7}
{"Target gene": "Ldb3", "reagent": 1, "GFP, % of control": 41.6, "viability (ATP), % of control": 53.3}
{"Target gene": "Ldb3", "reagent": 2, "GFP, % of control": 78.6, "viability (ATP), % of control": 54.4}
{"Target gene": "Tcf19", "reagent": 1, "GFP, % of control": 100, "viability (ATP), % of control": 67.3}
{"Target gene": "Tcf19", "reagent": 2, "GFP, % of control": 77, "viability (ATP), % of control": 97.2}
{"Target gene": "Tcf19", "reagent": 3, "GFP, % of control": 83.6, "viability (ATP), % of control": 79.7}
